Test results as given in patent US20090220507A1, “INHIBITION OF EXTRACELLULAR SIGNAL-REGULATED KINASE 1/2 AS A TREATMENT FOR CARDIAC HYPERTROPHY AND HEART FAILURE” (priority 2005, published 2009).
At least one compound was matched to its structure with a doubt left.

Tested on: β1-AR-mediated fetal gene expression in NRVMs
Experiment: RNase protection assay of isoproterenol-induced fetal gene program mRNA in NRVMs
Assay type: cell-based, rat
Details: inhibitor 1 hour before isoproterenol, RPA, mRNA normalized to GAPDH
Procedure: Materials. Isoproterenol (Sigma) was dissolved in sterile H2O containing 1 mmol/L Ascorbic Acid, and the concentrations used are described in the results section.
Cell Culture. Neonatal rat cardiac ventricular myocytes (NRVMs) were cultured as previously described (Simpson et al., 1982; Simpson and Savion, 1982; Long et al., 1992; Waspe et al., 1990). Briefly, cells were isolated by trypsin digestion from the ventricles of 1-3 day old rats. Isolation procedures were done in a very gentle manner and cells were plated at a concentration of 1.5×10^5 cells per well in 12-well tissue culture plates in medium containing serum. 24 hours later the media was changed to serum free media containing insulin, transferin, bovine serum albumin, vitamin B12 and penicillin. Wells were pre-coated with a 0.1% gelatin solution and dried in a hood under UV lights. In addition, all media solutions were supplemented with Hepes (pH 7.5) to a final concentration of 20 mmol/L in order to buffer the pH of the media.
(§1) RNase Protection Assay. Total RNA was extracted by TRIZol (Invitrogen) and used in RNase protection assays (RPA). RPAs were performed essentially as described (Patten et al., 1996; Kinugawa et al., 2001). Briefly, 5 μg of total RNA was hybridized against probes specific to skeletal α-actin, SRCA2A, α-MyHC, β-MyHC, ANF, BNP and GAPDH. RNase protection experiments were performed using the RPAII kit (Ambion). RPA experiments were performed from mRNA extracted from a minimum of three different experiments.
as §1, with “RNase Protection Assay: Total RNA” for “RNase Protection Assay. Total RNA”, “al., 1996; Kinuguwa et al.,” for “al., 1996; Kinugawa et al.,”, “protection experiments (RPAs) were performed” for “protection experiments were performed”

Compound: COC(=O)C1=C(C)NC(C)=C(C(=O)OCCN(C)Cc2ccccc2)C1c1cccc([N+](=O)[O-])c1 (stereo not drawn) [nicardipine]
- isoproterenol-associated down-regulation (repression) of SRCA2a: prevented
- isoproterenol-associated down-regulation (repression) of α-MyHC: prevented
- isoproterenol-associated up-regulation (induction) of ANP: prevented
- isoproterenol-associated up-regulation of BNP: prevented
- isoproterenol-associated up-regulation of skeletal α-actin: prevented
- up-regulation (activation) of β-MyHC in response to isoproterenol stimulation: increased
